Measurements from the supplement of paper PMC12819154, “High-throughput peptide-centric local stability assay extends protein–ligand identification to membrane proteins, tissues and bacteria” (Nature Structural & Molecular Biology, 2025).
The list shows a part of the results. Most entries show no effect beyond the scatter of the controls.

Sequences of proteins named here, by UniProt entry; tags and fusion partners are left off. A change or cut given only in a name is not applied to a line headed by its entry.
UniProt Q96NA2: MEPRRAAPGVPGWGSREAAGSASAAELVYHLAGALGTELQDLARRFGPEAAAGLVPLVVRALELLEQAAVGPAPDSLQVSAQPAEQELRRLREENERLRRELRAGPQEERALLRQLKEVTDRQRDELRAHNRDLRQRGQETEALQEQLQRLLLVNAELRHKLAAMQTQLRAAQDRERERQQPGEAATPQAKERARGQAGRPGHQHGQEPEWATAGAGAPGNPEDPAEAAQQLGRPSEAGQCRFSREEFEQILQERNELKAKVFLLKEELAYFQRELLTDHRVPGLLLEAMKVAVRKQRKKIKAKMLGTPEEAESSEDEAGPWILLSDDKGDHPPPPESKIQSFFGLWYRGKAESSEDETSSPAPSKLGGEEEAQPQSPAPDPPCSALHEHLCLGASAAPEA
UniProt Q96JH7: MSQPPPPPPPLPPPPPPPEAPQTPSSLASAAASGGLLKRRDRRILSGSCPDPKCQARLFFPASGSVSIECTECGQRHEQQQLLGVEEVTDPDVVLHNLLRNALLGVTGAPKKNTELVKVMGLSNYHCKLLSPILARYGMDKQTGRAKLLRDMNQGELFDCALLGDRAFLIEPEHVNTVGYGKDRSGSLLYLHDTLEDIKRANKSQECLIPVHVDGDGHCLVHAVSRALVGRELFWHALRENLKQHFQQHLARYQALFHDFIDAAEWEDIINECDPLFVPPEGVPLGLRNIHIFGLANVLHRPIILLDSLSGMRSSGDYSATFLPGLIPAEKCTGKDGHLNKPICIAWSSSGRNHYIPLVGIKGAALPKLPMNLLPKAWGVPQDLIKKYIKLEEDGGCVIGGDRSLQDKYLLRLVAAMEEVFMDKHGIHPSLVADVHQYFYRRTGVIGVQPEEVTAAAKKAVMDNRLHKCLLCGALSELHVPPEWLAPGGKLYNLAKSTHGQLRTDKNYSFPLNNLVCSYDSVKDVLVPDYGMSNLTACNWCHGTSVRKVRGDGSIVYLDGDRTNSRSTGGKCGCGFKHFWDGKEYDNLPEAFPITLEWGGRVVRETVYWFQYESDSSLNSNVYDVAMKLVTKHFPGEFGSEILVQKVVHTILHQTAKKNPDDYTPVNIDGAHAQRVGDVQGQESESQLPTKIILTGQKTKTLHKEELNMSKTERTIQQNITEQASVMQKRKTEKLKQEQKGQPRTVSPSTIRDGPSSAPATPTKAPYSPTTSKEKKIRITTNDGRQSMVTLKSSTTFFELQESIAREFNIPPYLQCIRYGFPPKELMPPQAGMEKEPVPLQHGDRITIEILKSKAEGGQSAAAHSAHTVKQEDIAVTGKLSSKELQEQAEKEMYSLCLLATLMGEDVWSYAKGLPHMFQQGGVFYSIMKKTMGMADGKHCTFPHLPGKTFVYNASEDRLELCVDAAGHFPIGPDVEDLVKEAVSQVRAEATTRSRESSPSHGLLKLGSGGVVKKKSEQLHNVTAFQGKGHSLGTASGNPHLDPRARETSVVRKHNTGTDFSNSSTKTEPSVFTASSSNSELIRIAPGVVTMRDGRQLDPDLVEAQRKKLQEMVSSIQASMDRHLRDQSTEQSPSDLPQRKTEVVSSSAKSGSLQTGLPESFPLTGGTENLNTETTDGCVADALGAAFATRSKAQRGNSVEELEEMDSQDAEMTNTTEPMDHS
UniProt Q96QP1: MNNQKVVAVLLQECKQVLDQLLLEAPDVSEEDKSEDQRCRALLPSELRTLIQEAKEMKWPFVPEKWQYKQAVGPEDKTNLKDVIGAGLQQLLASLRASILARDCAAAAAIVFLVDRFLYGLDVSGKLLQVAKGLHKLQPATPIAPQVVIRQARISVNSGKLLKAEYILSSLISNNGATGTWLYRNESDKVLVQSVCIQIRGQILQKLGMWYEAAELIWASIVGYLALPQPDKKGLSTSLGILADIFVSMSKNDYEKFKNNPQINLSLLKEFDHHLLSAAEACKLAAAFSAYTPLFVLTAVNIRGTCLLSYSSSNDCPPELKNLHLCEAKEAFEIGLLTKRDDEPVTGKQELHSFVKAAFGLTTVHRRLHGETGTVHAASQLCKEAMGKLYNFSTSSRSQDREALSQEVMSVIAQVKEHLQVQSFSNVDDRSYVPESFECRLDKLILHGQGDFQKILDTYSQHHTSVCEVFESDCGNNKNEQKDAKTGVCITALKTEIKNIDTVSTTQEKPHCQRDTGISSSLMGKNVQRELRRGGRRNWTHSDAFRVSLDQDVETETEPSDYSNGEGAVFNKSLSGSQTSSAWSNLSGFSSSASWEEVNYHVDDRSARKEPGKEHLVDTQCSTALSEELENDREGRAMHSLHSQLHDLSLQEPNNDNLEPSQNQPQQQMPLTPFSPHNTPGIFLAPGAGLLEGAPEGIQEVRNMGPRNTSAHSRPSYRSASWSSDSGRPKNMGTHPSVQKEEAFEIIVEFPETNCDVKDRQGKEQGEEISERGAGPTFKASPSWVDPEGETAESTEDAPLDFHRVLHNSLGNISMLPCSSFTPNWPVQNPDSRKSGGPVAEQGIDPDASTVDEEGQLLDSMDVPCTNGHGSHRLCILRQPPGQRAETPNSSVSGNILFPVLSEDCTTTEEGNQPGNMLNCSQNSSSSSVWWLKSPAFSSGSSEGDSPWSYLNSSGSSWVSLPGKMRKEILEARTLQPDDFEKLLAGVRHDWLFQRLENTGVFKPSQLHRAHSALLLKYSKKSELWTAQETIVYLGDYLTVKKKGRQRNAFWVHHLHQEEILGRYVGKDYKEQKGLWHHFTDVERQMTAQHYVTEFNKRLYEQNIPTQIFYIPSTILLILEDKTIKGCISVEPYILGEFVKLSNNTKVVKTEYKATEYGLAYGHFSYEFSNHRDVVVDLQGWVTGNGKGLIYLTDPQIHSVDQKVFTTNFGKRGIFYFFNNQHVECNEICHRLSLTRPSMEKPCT
UniProt Q99471, whole entry: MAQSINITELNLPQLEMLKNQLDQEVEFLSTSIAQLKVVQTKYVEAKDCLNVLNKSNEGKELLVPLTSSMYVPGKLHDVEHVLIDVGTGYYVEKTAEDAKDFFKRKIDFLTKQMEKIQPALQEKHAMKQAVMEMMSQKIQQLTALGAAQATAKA
UniProt Q96RY5: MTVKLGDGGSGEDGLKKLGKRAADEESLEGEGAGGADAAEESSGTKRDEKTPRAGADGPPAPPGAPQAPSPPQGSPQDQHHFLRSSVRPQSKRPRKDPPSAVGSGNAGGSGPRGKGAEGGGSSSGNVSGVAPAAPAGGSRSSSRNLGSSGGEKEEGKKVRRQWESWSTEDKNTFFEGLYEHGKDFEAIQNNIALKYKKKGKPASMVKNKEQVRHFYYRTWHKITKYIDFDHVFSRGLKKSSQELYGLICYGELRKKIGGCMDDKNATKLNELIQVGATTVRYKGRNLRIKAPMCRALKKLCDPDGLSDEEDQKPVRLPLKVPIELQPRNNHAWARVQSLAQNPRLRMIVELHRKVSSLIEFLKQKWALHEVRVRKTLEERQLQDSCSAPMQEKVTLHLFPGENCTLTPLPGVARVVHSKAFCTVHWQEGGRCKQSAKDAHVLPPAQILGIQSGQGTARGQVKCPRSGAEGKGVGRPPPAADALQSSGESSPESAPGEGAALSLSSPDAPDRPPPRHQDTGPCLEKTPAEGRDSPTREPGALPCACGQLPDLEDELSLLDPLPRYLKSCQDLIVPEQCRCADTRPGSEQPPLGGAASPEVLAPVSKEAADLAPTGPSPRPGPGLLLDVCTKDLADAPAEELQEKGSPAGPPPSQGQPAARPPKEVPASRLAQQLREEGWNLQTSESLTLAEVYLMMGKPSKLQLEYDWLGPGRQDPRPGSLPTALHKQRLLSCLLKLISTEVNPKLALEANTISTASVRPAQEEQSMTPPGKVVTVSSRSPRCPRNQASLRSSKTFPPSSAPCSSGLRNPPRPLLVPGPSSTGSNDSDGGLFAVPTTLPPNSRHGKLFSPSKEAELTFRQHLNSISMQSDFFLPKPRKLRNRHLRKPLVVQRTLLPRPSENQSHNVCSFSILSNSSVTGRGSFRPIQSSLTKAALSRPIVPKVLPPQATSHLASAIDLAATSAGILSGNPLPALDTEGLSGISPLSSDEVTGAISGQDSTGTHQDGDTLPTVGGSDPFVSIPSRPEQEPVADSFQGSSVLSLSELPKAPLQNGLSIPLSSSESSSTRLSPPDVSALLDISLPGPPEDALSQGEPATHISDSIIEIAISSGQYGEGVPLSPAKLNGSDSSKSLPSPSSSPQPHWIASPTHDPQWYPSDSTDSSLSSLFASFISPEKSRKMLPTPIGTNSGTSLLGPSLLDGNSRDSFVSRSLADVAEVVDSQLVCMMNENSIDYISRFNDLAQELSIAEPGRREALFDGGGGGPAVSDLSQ
UniProt Q96IK5: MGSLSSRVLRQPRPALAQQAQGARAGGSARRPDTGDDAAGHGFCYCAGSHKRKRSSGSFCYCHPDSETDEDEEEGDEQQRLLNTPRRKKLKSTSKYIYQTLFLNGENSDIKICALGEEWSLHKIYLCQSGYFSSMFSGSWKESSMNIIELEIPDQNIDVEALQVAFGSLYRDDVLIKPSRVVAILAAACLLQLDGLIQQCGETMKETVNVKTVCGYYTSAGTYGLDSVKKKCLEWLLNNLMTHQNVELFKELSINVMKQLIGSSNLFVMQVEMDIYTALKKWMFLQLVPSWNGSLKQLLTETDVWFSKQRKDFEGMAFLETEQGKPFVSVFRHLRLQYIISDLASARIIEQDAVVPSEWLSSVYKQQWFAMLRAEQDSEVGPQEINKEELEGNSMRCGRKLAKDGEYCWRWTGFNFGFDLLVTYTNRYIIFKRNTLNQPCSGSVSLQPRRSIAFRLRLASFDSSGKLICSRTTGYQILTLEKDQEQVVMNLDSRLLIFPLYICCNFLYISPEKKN
UniProt Q96GM5, whole entry: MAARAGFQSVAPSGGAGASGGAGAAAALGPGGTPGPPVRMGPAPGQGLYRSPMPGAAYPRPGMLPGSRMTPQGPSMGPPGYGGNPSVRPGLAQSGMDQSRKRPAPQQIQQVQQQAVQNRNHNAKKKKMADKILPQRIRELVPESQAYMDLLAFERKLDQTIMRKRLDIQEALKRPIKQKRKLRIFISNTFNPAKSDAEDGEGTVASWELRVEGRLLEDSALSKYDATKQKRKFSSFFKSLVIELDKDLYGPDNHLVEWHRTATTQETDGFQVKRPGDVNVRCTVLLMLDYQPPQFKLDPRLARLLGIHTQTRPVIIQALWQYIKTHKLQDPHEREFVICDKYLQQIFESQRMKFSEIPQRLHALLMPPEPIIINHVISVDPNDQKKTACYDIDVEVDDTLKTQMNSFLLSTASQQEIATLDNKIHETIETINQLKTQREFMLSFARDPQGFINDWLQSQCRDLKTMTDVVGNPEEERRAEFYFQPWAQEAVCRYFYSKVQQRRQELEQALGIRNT
UniProt Q96MG8: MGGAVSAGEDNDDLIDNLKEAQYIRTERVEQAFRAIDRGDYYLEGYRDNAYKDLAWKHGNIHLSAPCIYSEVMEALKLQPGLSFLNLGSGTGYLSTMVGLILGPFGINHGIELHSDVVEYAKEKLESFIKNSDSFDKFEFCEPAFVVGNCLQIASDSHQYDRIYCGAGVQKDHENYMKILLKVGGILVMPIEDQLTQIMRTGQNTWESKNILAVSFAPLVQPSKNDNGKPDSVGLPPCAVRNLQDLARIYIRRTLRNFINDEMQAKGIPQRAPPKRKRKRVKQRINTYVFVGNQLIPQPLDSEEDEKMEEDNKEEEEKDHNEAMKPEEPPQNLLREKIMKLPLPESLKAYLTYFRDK
UniProt Q96PU4: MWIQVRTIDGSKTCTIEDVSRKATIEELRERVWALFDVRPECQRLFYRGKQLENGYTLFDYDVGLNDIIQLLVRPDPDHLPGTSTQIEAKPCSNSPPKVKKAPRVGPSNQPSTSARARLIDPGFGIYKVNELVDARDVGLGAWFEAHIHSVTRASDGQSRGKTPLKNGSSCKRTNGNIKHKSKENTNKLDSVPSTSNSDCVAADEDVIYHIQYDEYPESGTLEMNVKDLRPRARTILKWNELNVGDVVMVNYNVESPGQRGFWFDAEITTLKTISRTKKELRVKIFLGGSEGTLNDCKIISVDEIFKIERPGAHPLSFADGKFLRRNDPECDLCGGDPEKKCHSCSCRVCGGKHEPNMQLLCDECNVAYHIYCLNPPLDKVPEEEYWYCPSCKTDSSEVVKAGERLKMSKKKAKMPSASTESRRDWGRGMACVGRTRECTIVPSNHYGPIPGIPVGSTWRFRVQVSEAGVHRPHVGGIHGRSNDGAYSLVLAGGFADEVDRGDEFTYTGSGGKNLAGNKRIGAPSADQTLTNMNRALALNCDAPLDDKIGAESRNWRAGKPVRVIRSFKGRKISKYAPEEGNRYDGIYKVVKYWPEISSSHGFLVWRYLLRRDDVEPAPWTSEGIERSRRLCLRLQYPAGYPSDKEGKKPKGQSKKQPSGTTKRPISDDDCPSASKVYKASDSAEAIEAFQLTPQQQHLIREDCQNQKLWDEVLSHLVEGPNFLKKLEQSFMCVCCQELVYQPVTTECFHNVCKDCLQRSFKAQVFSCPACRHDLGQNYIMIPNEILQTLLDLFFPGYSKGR

compound: CN[C@@H]1C[C@H]2O[C@@](C)([C@@H]1OC)n1c3ccccc3c3c4c(c5c6ccccc6n2c5c31)C(=O)NC4 [staurosporine]; assay: log2 fold change of tryptic peptide abundance, ligand vs vehicle (limited proteolysis) (log2 ratio); higher = more trypsin-susceptible (destabilized); conditions: ligand concentration: 20 uM; sample: K562 cleared lysate; digestion: 4 min, 22 C (HT-PELSA RT4min, Orbitrap Astral)

Target	log2 fold change
UniProt Q96HT8 (peptide sequence: EDIASLIR, peptide start residue: 37)	0.23
UniProt Q96HM7 (peptide sequence: LLTPGQLR, peptide start residue: 42)	0.279
DEPDC7 (peptide sequence: FTTIPNQDSQLGKENK, peptide start residue: 134) (UniProt Q96QD5)	-0.231
RILP (peptide sequence: FSREEFEQILQERNELK, peptide start residue: 243) (UniProt Q96NA2)	-0.527
TMEM209 (peptide sequence: SQAPCANKDEADLSSK, peptide start residue: 297) (UniProt Q96SK2)	-0.342
EGLN2 (peptide sequence: ATATSTTASPLR, peptide start residue: 66) (UniProt Q96KS0)	0.246
RCHY1 (peptide sequence: CKICESYNTAQAGGR, peptide start residue: 240) (UniProt Q96PM5)	-0.362
UniProt Q96JH8 (peptide sequence: SVLATGTSSAR, peptide start residue: 80)	-0.243
SIN3A (peptide sequence: SDSPAIQLR, peptide start residue: 938) (UniProt Q96ST3)	-0.264
EAF1 (peptide sequence: APTKPPVGPK, peptide start residue: 147) (UniProt Q96JC9)	0.0318
FYTTD1 (peptide sequence: TAVPSFLTKR, peptide start residue: 253) (UniProt Q96QD9)	-0.193
IPO9 (peptide sequence: WTNIPLLVK, peptide start residue: 908) (UniProt Q96P70)	0.231
RSF1 (peptide sequence: LEKPLPENEEK, peptide start residue: 295) (UniProt Q96T23)	0.383
IFT140 (peptide sequence: AVELLLAAR, peptide start residue: 1142) (UniProt Q96RY7)	-0.28
L3MBTL3 (peptide sequence: IFNSILMFK, peptide start residue: 762) (UniProt Q96JM7)	-0.453
UniProt Q96RR1 (peptide sequence: ALSPFAESSQLK, peptide start residue: 80)	-0.354
VCPIP1 (peptide sequence: QHFQQHLAR, peptide start residue: 244) (UniProt Q96JH7)	0.337
ALPK1 (peptide sequence: VVAVLLQECK, peptide start residue: 6) (UniProt Q96QP1)	0.168

Target	log2 fold change
PFDN5 (peptide sequence: IQQLTALGAAQATAKA, peptide start residue: 139) (UniProt Q99471)	-0.249
UHRF1 (peptide sequence: QSLVLPHSTK, peptide start residue: 75) (UniProt Q96T88)	0.719
CDC5L (peptide sequence: EIDDTYIEDAADVDAR, peptide start residue: 506) (UniProt Q99459)	-0.443
CDK5RAP3 (peptide sequence: WQSLVLTIR, peptide start residue: 30) (UniProt Q96JB5)	0.409
CDK5RAP2 (peptide sequence: SIETSSTLQSR, peptide start residue: 1608) (UniProt Q96SN8)	-0.313
CRAMP1 (peptide sequence: PGPGLLLDVCTK, peptide start residue: 619) (UniProt Q96RY5)	-0.339
ZNF512B (peptide sequence: AMPVTKPITVTK, peptide start residue: 251) (UniProt Q96KM6)	0.153
CRBN (peptide sequence: CQIFPSKPVSR, peptide start residue: 205) (UniProt Q96SW2)	0.0711
UniProt Q96IK5 (peptide sequence: PALAQQAQGAR, peptide start residue: 14)	0.249
SMARCD1 (peptide sequence: AEFYFQPWAQEAVCR, peptide start residue: 479) (UniProt Q96GM5)	-0.439
UniProt Q96ND0 (peptide sequence: LQETKEK, peptide start residue: 258)	-0.0718
PCMTD1 (peptide sequence: LPLPESLK, peptide start residue: 341) (UniProt Q96MG8)	0.43
UniProt Q96I51 (peptide sequence: KVVENEIYSESHR, peptide start residue: 209)	-0.348
PCYT2 (peptide sequence: AMGDYLIVGVHTDEEIAK, peptide start residue: 47) (UniProt Q99447)	-0.238
SLC38A2 (peptide sequence: SHYADVDPENQNFLLESNLGKK, peptide start residue: 39) (UniProt Q96QD8)	-0.231
UHRF2 (peptide sequence: VQVSEAGVHRPHVGGIHGR, peptide start residue: 463) (UniProt Q96PU4)	-0.538
RAB40C (peptide sequence: SIRPPQSPPQNCSR, peptide start residue: 262) (UniProt Q96S21)	-0.294
UniProt Q96MT0 (peptide sequence: SIGTSQIFLER, peptide start residue: 130)	0.266

Shown bar-delimited: part of the list above
Target | log2 fold change
TMEM209 (peptide sequence: SQAPCANKDEADLSSK, peptide start residue: 297) (UniProt Q96SK2) | -0.342
EGLN2 (peptide sequence: ATATSTTASPLR, peptide start residue: 66) (UniProt Q96KS0) | 0.246
